# Values from PubChem BioAssay AID504764 (Drosophila RNAi Screening Center, 2011).
# Assay: 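Genome-wide screen for regulators of Notch-driven gene expression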 (primary screen)
# Cells: Drosophila Kc167 cells
# Reagent: long dsRNA against Drosophila genes
# Time to read-out: about 5 days (4 days dsRNA, then 24 h after transfection)
# Challenge: transfection of constitutively active membrane-tethered Notch lacking the extracellular domain, read 24 h later
# Measured: 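Light from a Notch-responsive E(spl)m3 luciferase reporter under active Notch, with control-promoter and no-Notch reporter wells to normalise; raw counts from paired wells a and b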
# Scale: induced reporter light, run 1, well a and induced reporter light, run 1, well b: higher = more light from the Notch target reporter with active Notch; control promoter light, run 1, well a and control promoter light, run 1, well b: higher = more light from the viral control promoter (cell number, transfection, viability); uninduced reporter light, run 1, well a: higher = more light from the Notch target reporter without active Notch
# Hit rule: 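Hit if the duplicate-averaged log2 ratio of induced to control-promoter light gives a plate-wise z beyond ±2, or induced to uninduced beyond ±1.8; weak-control or discordant-duplicate wells dropped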
# Meaning of the calls: active = modifier hit (raised or lowered Notch signal); inactive = not a hit
# The deposit covers about 22,000 reagents; shown is an unselected part of those that have a named target and a result. In the full data, 403 (1.9%) are marked active. 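Unnormalised raw counts per well; ratio z-scores behind the hit calls and whether each hit raises or lowers signal are not deposited.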 Names joined by + are all predicted targets of the reagent. The record does not give: the amount of reagent.
gene,dsRNA,"induced reporter light, run 1, well a","induced reporter light, run 1, well b","control promoter light, run 1, well a","control promoter light, run 1, well b","uninduced reporter light, run 1, well a",call
CG11406 (GeneID 37877),DRSC04010,1.34e5,1.55e5,1.89e5,2.15e5,8405,inactive
CG11406 (GeneID 37877),DRSC04108,1.98e5,2.12e5,2.06e5,1.92e5,16295,inactive
CG15870 (GeneID 36446),DRSC06588,83425,94255,1.01e5,79985,8115,inactive
mRpL39 (GeneID 39627),DRSC10255,1.64e5,1.59e5,2.28e5,2.25e5,6335,inactive
CG17636 (GeneID 5740847),DRSC20648,91630,81970,96150,1.04e5,7870,inactive
CG12974 (GeneID 40350),DRSC11684,1.31e5,1.24e5,1.45e5,1.45e5,7750,inactive
Septin1 (GeneID 33114),DRSC20573,71105,76565,97980,97160,10000,inactive
vri (GeneID 33759),DRSC03633,13215,10140,11970,11885,5045,inactive
Fas1 (GeneID 42025),DRSC16669,2.15e5,2.02e5,1.88e5,2.34e5,15300,inactive
CG33483 (GeneID 2768693),DRSC14019,73450,90730,1.16e5,1.05e5,6755,inactive
CG5382 (GeneID 42618),DRSC15786,2.00e5,2.25e5,2.75e5,2.42e5,15360,inactive
sunz (GeneID 40811),DRSC12559,57200,56210,47975,42080,3620,inactive
Nmdmc (GeneID 47895),DRSC16760,1.52e5,1.35e5,88795,88250,11795,inactive
NimB4 (GeneID 34814),DRSC01884,2.10e5,2.15e5,2.31e5,1.99e5,19615,inactive
Flo2 (GeneID 32425),DRSC19062,1.03e5,83520,78470,80775,7510,inactive
Flo2 (GeneID 32425),DRSC20244,65935,76145,60980,57310,9900,inactive
Den1 (GeneID 36339),DRSC07195,89585,89785,1.27e5,78260,8370,inactive
Ugt37C2 (GeneID 53513),DRSC02247,1.45e5,1.31e5,1.38e5,1.37e5,11415,inactive
Ir94a (GeneID 318610),DRSC13538,70510,75815,83685,74695,10520,inactive
Spn28B (GeneID 34035),DRSC02982,2.14e5,1.83e5,2.33e5,1.79e5,9920,inactive
LysD + LysC (retired record),DRSC08674,1.29e5,1.74e5,2.05e5,1.36e5,6600,inactive
Vajk2 (GeneID 34811),DRSC02540,1.37e5,1.43e5,1.43e5,1.85e5,12130,inactive
CG2698 (GeneID 40945),DRSC15447,62240,68110,77870,49985,4792,inactive
Ephrin (GeneID 43799),DRSC17165,1.37e5,1.22e5,1.89e5,1.92e5,9505,inactive
CG1603 (GeneID 35683),DRSC06602,1.76e5,1.56e5,1.57e5,1.73e5,12720,inactive
NPFR (GeneID 40754),DRSC12173,1.22e5,1.24e5,97515,91420,9850,inactive
her (GeneID 34992),DRSC03543,2.91e5,2.36e5,2.16e5,2.13e5,17605,inactive
RhoGAP71E (GeneID 39693),DRSC10232,1.50e5,1.10e5,1.03e5,1.24e5,10210,inactive
RhoGAP71E (GeneID 39693),DRSC10837,1.19e5,1.10e5,1.37e5,1.44e5,5490,inactive
RhoGAP71E (GeneID 39693),DRSC10838,1.59e5,2.18e5,2.77e5,2.41e5,8345,inactive
Krn (GeneID 326198),DRSC11202,1.57e5,1.65e5,2.04e5,1.77e5,8255,inactive
CG17186 (GeneID 42363),DRSC15180,2.52e5,1.82e5,1.86e5,2.04e5,15635,inactive
CG14731 (GeneID 41442),DRSC14952,49635,78170,63885,47770,2530,inactive
Ir56c (GeneID 37251),DRSC06544,1.37e5,1.36e5,1.40e5,1.40e5,11625,inactive
CG8010 (GeneID 32921),DRSC20072,73965,71790,53005,33185,5530,inactive
CG34040 (GeneID 3885655),DRSC03902,70300,70545,67525,73595,8600,inactive
SecS (GeneID 40681),DRSC12222,1.17e5,1.15e5,97765,96510,6020,inactive
FIG4 (GeneID 33658),DRSC00515,1.46e5,1.50e5,1.69e5,1.83e5,13770,inactive
CG4884 (GeneID 43357),DRSC15671,2.52e5,1.63e5,2.40e5,2.31e5,17970,inactive
CG13113 (GeneID 34271),DRSC02211,1.46e5,2.11e5,1.06e5,1.28e5,20375,inactive
mael (GeneID 40489),DRSC11894,1.17e5,1.01e5,63715,77560,7285,inactive
CG8997 (GeneID 34799),DRSC01900,1.55e5,1.50e5,1.53e5,1.65e5,11255,inactive

Next part; the last 7 above are carried over.
gene,dsRNA,"induced reporter light, run 1, well a","induced reporter light, run 1, well b","control promoter light, run 1, well a","control promoter light, run 1, well b","uninduced reporter light, run 1, well a",call
CG34040 (GeneID 3885655),DRSC03902,70300,70545,67525,73595,8600,inactive
SecS (GeneID 40681),DRSC12222,1.17e5,1.15e5,97765,96510,6020,inactive
FIG4 (GeneID 33658),DRSC00515,1.46e5,1.50e5,1.69e5,1.83e5,13770,inactive
CG4884 (GeneID 43357),DRSC15671,2.52e5,1.63e5,2.40e5,2.31e5,17970,inactive
CG13113 (GeneID 34271),DRSC02211,1.46e5,2.11e5,1.06e5,1.28e5,20375,inactive
mael (GeneID 40489),DRSC11894,1.17e5,1.01e5,63715,77560,7285,inactive
CG8997 (GeneID 34799),DRSC01900,1.55e5,1.50e5,1.53e5,1.65e5,11255,inactive
Cog3 (GeneID 33562),DRSC00585,1.53e5,1.66e5,1.48e5,1.58e5,13190,inactive
CG30050 (GeneID 246417),DRSC05342,1.68e5,1.77e5,2.53e5,2.98e5,18840,inactive
Smg6 (GeneID 42994),DRSC16029,5705,6625,6950,6405,540,inactive
Ski6 (GeneID 34721),DRSC02491,1.25e5,1.35e5,1.01e5,1.07e5,10525,inactive
bor (GeneID 53565),DRSC16915,1.08e5,1.09e5,1.33e5,1.36e5,10630,inactive
Mcm6 (GeneID 31603),DRSC18680,1.78e5,1.48e5,1.69e5,1.59e5,12825,inactive
CG9459 (GeneID 41213),DRSC16496,74865,83780,65790,53585,5092,inactive
CG11145 (GeneID 35663),DRSC06049,1.94e5,1.55e5,2.01e5,2.09e5,16605,inactive
CG30015 (GeneID 36147),DRSC05241,2.01e5,2.06e5,3.05e5,3.43e5,25430,inactive
CG30015 (GeneID 36147),DRSC07027,1.74e5,1.51e5,1.58e5,1.45e5,14430,inactive
CG30015 (GeneID 36147),DRSC07028,1.60e5,1.48e5,2.04e5,2.18e5,13050,inactive
CG9961 (GeneID 33459),DRSC00738,91735,1.01e5,83905,61555,7050,inactive
Rpp20 + CG33932,DRSC19467,1.03e5,1.17e5,1.27e5,1.33e5,12445,inactive
CG17646 (GeneID 33354),DRSC00507,86625,88895,72610,71945,6320,inactive
CG17601 (GeneID 33143),DRSC20639,72200,80320,84645,1.06e5,8380,inactive
CG1371 (GeneID 36053),DRSC06409,1.67e5,1.57e5,1.57e5,1.58e5,14505,inactive
pot (GeneID 32154),DRSC19850,1.94e5,1.74e5,2.63e5,2.73e5,13380,inactive
CG8958 (GeneID 32575),DRSC20134,90180,1.12e5,1.01e5,82180,12480,inactive
CG2258 (GeneID 31729),DRSC18222,2.74e5,2.41e5,3.90e5,3.78e5,15865,inactive
MSBP (GeneID 32548),DRSC20146,1.97e5,1.81e5,2.26e5,2.16e5,12465,inactive
PH4alphaMP (GeneID 43624),DRSC17031,1.41e5,1.38e5,1.96e5,1.64e5,10940,inactive
CG13920 (GeneID 38203),DRSC08389,1.09e5,1.12e5,1.99e5,2.30e5,8340,inactive
